From publication PMC12040169 (PLOS Biology, 2025) come the findings set out here.

The other results are listed elsewhere or left out.

This test has as its system T1, CTL2-GFP (C. trachomatis L2/434/Bu, GFP-expressing).
T1 construct: L2/434/Bu, GFP-expressing
On the set-up: species or system HeLa; Intracellular C. trachomatis growth in HeLa cells, bulk GFP fluorescence relative to DMSO. The settings on record: bulk GFP, single well; 28.5 h, 10 µM; inhibitor.
In the case of `O=C(O)CSc1nnc(C2COc3ccccc3O2)n1-c1ccccc1` (centres unmarked) [CBK263832], the “% of control remaining” value is reported as 84.9732%. The value for `CCOC(=O)C1(C2CCCCC2)CCN(C(=O)C(c2ccccc2)c2ccccc2)CC1` [CBK136943] was 94.7881%; that for `O=[N+]([O-])c1cc(/C=N/Nc2nc(N3CCOCC3)nc(N3CCOCC3)n2)c(O)c([N+](=O)[O-])c1` [CBK261237] was 93.6936%; that for `O=C(COc1ccc([N+](=O)[O-])cc1)Nc1ccc2oc(-c3ccc(Br)cc3)nc2c1` [CBK263444] was 88.4654%. The value for `Nc1ncc(-c2ccc(C(=O)O)cc2)nc1-c1ccc(C(=O)N2CCOCC2)cc1` [CBK084518] was 113.632%. The same measure for `NC(=O)C1(Cc2cccc(-c3cccs3)c2)CCN(C(=O)CCc2ccccc2)CC1` [CBK285782]: 131.357%. With `FC(F)(F)c1cc(NCCC2CCCCN2)cc(C(F)(F)F)c1` (centres unmarked) [CBK016963], the “% of control remaining” value was determined as 113.249%. The same measure for `O=C(Nc1ncccn1)C1CCCCC1` [CBK027567]: 160.292%; for `Fc1ccc(-c2cncc(NCCCN3CCOCC3)n2)c(F)c1` [CBK065867]: 119.185%; for `CCN(Cc1ccc(C#N)cc1F)C(=O)Nc1cnn(CC)c1` [CBK305702]: 98.7733%.

As for `Cc1cc(C)n(C(C)CNC(=O)C(C)Cn2cccn2)n1` (centres unmarked) [CBK281639], the “% of control remaining” value was found to be 127.285%. The value for `CCC(=O)N1CCCc2cc(C(O)CN3CCCCC3)ccc21` (centres unmarked) [CBK282130] was 140.013%.

For the compound `COc1cccc(COc2nccnc2/C=C/c2ccccc2)c1OC` [CBK106888], the “% of control remaining” value is 100%. Take `CC1CCCCC1NC(=O)CSc1nnc(CN2CCOCC2)n1C` (centres unmarked) [CBK266662]: the “% of control remaining” value is 124.464%.

`COc1ccc(-c2cc(C(=O)NCc3nc4ccccc4[nH]3)cnc2-c2ccccc2)cn1` [CBK037579]: the “% of control remaining” value was 240.872%.

Take `CCN(CC)C(=O)C1CCCN(C(=O)c2ccc3c(c2)COC(C2CCN(C(=O)OC(C)(C)C)CC2)O3)C1` (centres unmarked) [CBK173279]: the “% of control remaining” value is recorded as 109.368%. The value for `CCc1ccc(NC(=O)CNc2cc(C)ccc2OC)cc1` [CBK297553] was 116.73%; that for `COc1ccc(C=Cc2cc(C(=O)O)c3ccccc3n2)cc1OC(F)F` [CBK296953] was 130.68%. The same measure for `O=C1N[C@@H]2CCN(S(=O)(=O)c3cccs3)[C@@H]2C(=O)N1c1ccc(F)cc1` [CBK289326]: 143.579%; for `COc1ccc(CN(C)CCN(C)C)c(O)c1` [CBK261915]: 90.7239%. The value for `N=C(N)SCc1ncccc1O` [CBK278318C] was 101.88%; that for `Cc1ccc(Cn2nc(C)c(NC(=O)c3nc4ncccn4n3)c2C)cc1` [CBK268912] was 114.075%. Take `O=C(Nc1ccc(N2CCNCC2)c2ccccc12)c1coc2c1C(=O)CCC2` [CBK038946T]: the “% of control remaining” value was 72.8149%.

Regarding `Nc1nonc1C(=O)NCCNCc1cccs1` [CBK267305], the “% of control remaining” value was found to be 155.99%.

In the case of `Brc1ccc(CN2CCN3CCCC3C2C2CCCCC2)o1` (centres unmarked) [CBK021456], the “% of control remaining” value worked out at 106.428%. The value for `CCOC(=O)NC(=O)N1CCC(N2C(=O)OCC2(C)C)CC1` [CBK044179] was 59.1325%; that for `C/C(=N/NC(=O)CSc1nc2ccccc2n1C)c1cccc([N+](=O)[O-])c1` [CBK263179] was 113.766%; that for `COc1ccccc1NC(=O)C(=O)NCCc1c[nH]c2ccccc12` [CBK266672] was 101.011%. The value for `c1cn2cc(-c3ccc(N4CCOCC4)cc3)nc(NCC3CCOCC3)c2n1` [CBK037308] was 231.685%; that for `O=C(CSc1nnc(-c2ccccc2O)n1-c1ccccc1)N1CCc2ccccc21` [CBK268097] was 110.621%. The value for `O=C(/C=C/c1c(Cl)cccc1Cl)Nc1ccc(S(=O)(=O)Nc2ncccn2)cc1` [CBK265490] was 126.28%; that for `CCn1ncc(CN2C3CCC2CC(O)(c2ccccc2F)C3)c1C` (centres unmarked) [CBK282663] was 125.675%; that for `O=C(OCc1ccccc1)N1CCC(C2OCc3cc(-c4cccc5ncccc45)ccc3O2)CC1` (centres unmarked) [CBK144644] was 81.0076%. As to `O=C(O)c1sccc1Oc1ccc(F)cc1[N+](=O)[O-]` [CBK066847], the “% of control remaining” value is 95.6063%. The value for `COc1cnc(-c2cc(Cl)cc(Cl)c2)c(NC(C)=O)n1` [CBK145333] was 161.991%; that for `CCOc1ccc(-c2nc(CC(=O)O)cs2)cc1` [CBK295300] was 175.143%. The value for `O=C1N=C(NCC2CCCCC2)SC1CC(=O)N1CCCC(O)C1` (centres unmarked) [CBK067919] was 111.807%. The value for `CO[C@@H]1CO[C@H]2[C@@H]1OC[C@@H]2NC(=O)Nc1cccc(C(F)(F)F)c1` [CBK289461] was 93.3558%; that for `CC(=O)N1CCC[C@H]1Cn1nc(-c2cccs2)ccc1=O` [CBK284249] was 134.304%; that for `COc1ccccc1C1(NCc2cnn(C)c2)CCCC1` [CBK282744] was 153.608%. In the case of `O=C(CC(CN1CCCN(c2ncccn2)CC1)C(=O)O)NCc1ccccc1` (centres unmarked) [CBK286856], the “% of control remaining” value is reported as 142.447%. Consider `Cc1ccc(C(=O)C2(O)CCN(CCCC(c3ccc(F)cc3)c3ccc(F)cc3)CC2)cc1` [CBK025221C], for which the “% of control remaining” value was determined as 59.6187%.

For the compound `C/C(=N\NC(=O)c1nonc1N)c1ccc(Cl)cc1` [CBK025664], the “% of control remaining” value amounted to 120.044%. Regarding `CC1CCN(S(=O)(=O)c2ccc(NC(=O)COc3ccc([N+](=O)[O-])cc3)cc2)CC1` [CBK264994], the “% of control remaining” value amounted to 95.0348%. The same measure for `COc1ccc(-c2ccccc2)cc1NCc1cc2cc(OC)c(OC)cc2[nH]c1=O` [CBK286160]: 108.652%; for `COc1ccccc1NC(=O)Cn1nc(-c2ccc(C)cc2)ccc1=O` [CBK269974]: 123.345%; for `CC1CCc2c(C(=O)N3CC(C)OC(C)C3)csc2C1` (centres unmarked) [CBK304442]: 116.41%. The same measure for `O=C(CSc1ccc(Cl)cc1)N1CCN(c2ccc([N+](=O)[O-])c(N3CCOCC3)c2)CC1` [CBK269670]: 143.938%. The same measure for `O=C(Cc1cccc2ccccc12)Nc1cc(C(=O)O)cc(C(=O)O)c1` [CBK268475]: 133.542%; for `Cc1ccc(/C=C2\SC(=S)N(CCCC(=O)N3CCC(Cc4ccccc4)CC3)C2=O)cc1` [CBK264356]: 122.575%.
